Further values from the same series stand in other lists.
System: library of 8,380 IKZF3 degrons (ZF-eGFP/mCherry reporter) in Jurkat cells
Assay: Pooled library screen (FACS, NGS, limma voom LogFC of positive vs negative read counts)
Format: cell-based, human
Protocol: A library of 8,380 IKZF3 degrons was cloned into pLVX-Sprout to create the eGFP/mCherry protein degradation reporter plasmid pool. A lentivirus pool was then generated using the Lenti-X lentiviral vector production method.
Jurkat cells were transduced at a multiplicity of infection of <0.3 with the lentivirus vector library in order to maximise the number of cells with a single integration. Transductions were carried out in 6 well TC-treated cell culture dishes (Falcon) with 3×10^6 cells per well. Cells were incubated for 2 days at 37° C. and 5% CO2 before the supernatant was removed and replaced with fresh media. 6 days post-transduction, mCherry+ cells were isolated via FACS using the FACS Aria Fusion (BD) in a buffer containing PBS (Gibco), 2 mM EDTA (Gibco), 25 mM HEPES (Sigma) and 1% BSA (Sigma). 8 days later, cells were treated with DMSO or a thalidomide analog for 18 hours at 37° C. and 5% CO2. mCherry+GFPlow and NOT(mCherry+GFPlow) cells were sorted by FACS using the FACS Aria Fusion (BD). DMSO treated cells were used to set the mCherry+GFPlow gate and dead cells were excluded from sorting by staining cells with 1 μg/mL DAPI (ThermoFisher). gDNA was isolated using the Maxwell RSC 48 (Promega). gDNA from cells that were unsorted and untreated were also isolated to determine the library representation on the day of compound treatment. Throughout the screen >600× coverage of the library was maintained. 3 biological replicates were carried out with a new transduction taking place each time.
A two-step PCR was used where the first PCR (PCR1) amplified the integrated degron sequence from gDNA and the second PCR (PCR2) added Illumina adaptors and barcodes to permit multiplexing. See Supp F for PCR1 and PCR2 primers. Q5 Hot Start High-Fidelity 2× Master Mix (New England Biolabs) was used for both PCRs. Sufficient gDNA was amplified in PCR1 in order to maintain >600× coverage and amplicons were purified using solid phase reversible immobilization (SPRI) beads (Beckman Coulter). Purified PCR1 products were analysed on the Tapestation 4200 (Agilent) to confirm purity prior to proceeding to PCR2. Sufficient PCR1 product was amplified in PCR2 in order to maintain >600× coverage and amplicons were run on a 2% agarose TAE gel. Target bands were excised and purified using the NucleoSpin Gel and PCR Clean-up Kit (Machery Nagel). Amplicons were analysed on the Tapestation 4200 and quantified using Qubit dsDNA HS kit (ThermoFisher). PCR products were pooled and sequenced as paired-reads on the NovaSeq (Illumina) using a SP2 200 cycles kit (Illumina).
Count distributions, percentage of read mapping, library coverage and replicate correlation per sample were assessed for QC purposes.
To carry out the library screen, we used the same plasmid construct as in our earlier flow cytometry assays, but pooling all 8,380 mutants together into one Jurkat population, ensuring a copy number of one plasmid per cell (FIG. 4B). […] These GFP-negative cells were then separated from the remaining GFP-positive population using fluorescence activated cell sorting (FACS). These two populations were then sequenced and the relative abundance of every mutant in both populations compared to provide a log FC value for each mutant sequence. This value indicated how frequently a sequence is observed in the GFP-negative population relative to the GFP-positive population, and therefore how effective a degron it is for that particular IMID compound.

O=C1CCC(N2C(=O)c3ccc(N4CCOCC4)cc3C2=O)C(=O)N1 (stereo not shown) [B03]
B03_logFC (Degron-ID 3955, SEQ ID NO 3858, 46F_47V_49E_50V_52G_53A_54S_55F_67L): 2.911 | B03_logFC (Degron-ID 3972, SEQ ID NO 3660, 46F_47V_49N_50I_52G_53A_54P_55F_67L_): 3.322 | B03_logFC (Degron-ID 4020, SEQ ID NO 3900, 46F_47V_49P_50I_52G_53A_54A_55F_67L): 2.85 | B03_logFC (Degron-ID 4021, SEQ ID NO 4347, 46F_47V_49P_50I_52G_53A_54C_55F_67L_): 2.129 | B03_logFC (Degron-ID 4025, SEQ ID NO 3767, 46F_47V_49P_50I_52G_53A_54G_55F_67L_): 3.085 | B03_logFC (Degron-ID 4026, SEQ ID NO 4352, 46F_47V_49P_50I_52G_53A_54H_55F_67L_): 2.119 | B03_logFC (Degron-ID 4031, SEQ ID NO 4037, 46F_47V_49P_50I_52G_53A_54N_55F_67L): 2.628 | B03_logFC (Degron-ID 4033, SEQ ID NO 3788, 46F_47V_49P_50I_52G_53A_54Q_55F_67L_): 3.03 | B03_logFC (Degron-ID 4035, SEQ ID NO 3937, 46F_47V_49P_50I_52G_53A_54S_55F_67L): 2.78 | B03_logFC (Degron-ID 4052, SEQ ID NO 4382, 46F_47V_49P_50Q_52G_53A_54P_55F_67L_): 2.064 | B03_logFC (Degron-ID 4060, SEQ ID NO 3704, 46F_47V_49P_50V_52G_53A_54A_55F_67L_): 3.204 | B03_logFC (Degron-ID 4072, SEQ ID NO 3656, 46F_47V_49P_50V_52G_53A_54P_55F_67L_): 3.333 | B03_logFC (Degron-ID 4073, SEQ ID NO 4041, 46F_47V_49P_50V_52G_53A_54Q_55F_67L): 2.62 | B03_logFC (Degron-ID 4074, SEQ ID NO 4320, 46F_47V_49P_50V_52G_53A_54R_55F_67L_): 2.175 | B03_logFC (Degron-ID 4075, SEQ ID NO 3910, 46F_47V_49P_50V_52G_53A_54S_55F_67L): 2.833 | B03_logFC (Degron-ID 4084, SEQ ID NO 4321, 46F_47W_49D_50I_52G_53A_54F_55F_67L_): 2.175 | B03_logFC (Degron-ID 4089, SEQ ID NO 4296, 46F_47W_49D_50I_52G_53A_54L_55F_67L_): 2.23 | B03_logFC (Degron-ID 4096, SEQ ID NO 3775, 46F_47W_49D_50I_52G_53A_54T_55F_67L_): 3.054 | B03_logFC (Degron-ID 4097, SEQ ID NO 3812, 46F_47W_49D_50I_52G_53A_54V_55F_67L_): 2.986 | B03_logFC (Degron-ID 4099, SEQ ID NO 4256, 46F_47W_49D_50I_52G_53A_54Y_55F_67L_): 2.281 | B03_logFC (Degron-ID 4111, SEQ ID NO 4324, 46F_47W_49D_50Q_52G_53A_54N_55F_67L_): 2.168 | B03_logFC (Degron-ID 4126, SEQ ID NO 3707, 46F_47W_49D_50V_52G_53A_54H_55F_67L_): 3.202 | B03_logFC (Degron-ID 4128, SEQ ID NO 3708, 46F_47W_49D_50V_52G_53A_54K_55F_67L_): 3.202 | B03_logFC (Degron-ID 4136, SEQ ID NO 3887, 46F_47W_49D_50V_52G_53A_54T_55F_67L): 2.873 | B03_logFC (Degron-ID 4143, SEQ ID NO 3934, 46F_47W_49E_50I_52G_53A_54E_55F_67L): 2.781 | B03_logFC (Degron-ID 4144, SEQ ID NO 3747, 46F_47W_49E_50I_52G_53A_54F_55F_67L_): 3.129 | B03_logFC (Degron-ID 4145, SEQ ID NO 3882, 46F_47W_49E_50I_52G_53A_54G_55F_67L): 2.877 | B03_logFC (Degron-ID 4149, SEQ ID NO 3813, 46F_47W_49E_50I_52G_53A_54L_55F_67L_): 2.986 | B03_logFC (Degron-ID 4159, SEQ ID NO 3854, 46F_47W_49E_50I_52G_53A_54Y_55F_67L): 2.917 | B03_logFC (Degron-ID 4166, SEQ ID NO 4394, 46F_47W_49E_50Q_52G_53A_54H_55F_67L_): 2.047 | B03_logFC (Degron-ID 4171, SEQ ID NO 3922, 46F_47W_49E_50Q_52G_53A_54N_55F_67L): 2.803 | B03_logFC (Degron-ID 4173, SEQ ID NO 3841, 46F_47W_49E_50Q_52G_53A_54Q_55F_67L_): 2.94 | B03_logFC (Degron-ID 4174, SEQ ID NO 3753, 46F_47W_49E_50Q_52G_53A_54R_55F_67L_): 3.121 | B03_logFC (Degron-ID 4184, SEQ ID NO 3856, 46F_47W_49E_50V_52G_53A_54F_55F_67L): 2.916 | B03_logFC (Degron-ID 4185, SEQ ID NO 3930, 46F_47W_49E_50V_52G_53A_54G_55F_67L): 2.789 | B03_logFC (Degron-ID 4187, SEQ ID NO 3741, 46F_47W_49E_50V_52G_53A_54I_55F_67L_): 3.147 | B03_logFC (Degron-ID 4192, SEQ ID NO 3851, 46F_47W_49E_50V_52G_53A_54P_55F_67L): 2.919 | B03_logFC (Degron-ID 4199, SEQ ID NO 3819, 46F_47W_49E_50V_52G_53A_54Y_55F_67L_): 2.977 | B03_logFC (Degron-ID 4200, SEQ ID NO 3662, 46F_47W_49N_50I_52G_53A_54A_55F_67L_): 3.321 | B03_logFC (Degron-ID 4201, SEQ ID NO 3646, 46F_47W_49N_50I_52G_53A_54C_55F_67L_): 3.356 | B03_logFC (Degron-ID 4203, SEQ ID NO 4407, 46F_47W_49N_50I_52G_53A_54E_55F_67L_): 2.033 | B03_logFC (Degron-ID 4206, SEQ ID NO 3711, 46F_47W_49N_50I_52G_53A_54H_55F_67L_): 3.193 | B03_logFC (Degron-ID 4207, SEQ ID NO 4328, 46F_47W_49N_50I_52G_53A_54I_55F_67L_): 2.157

From patent US20260284208A1, “SYSTEM” (Oxford University Innovation Limited, priority 2023, published 2026)
